# Experimental data published in doi:10.1101/2025.10.27.684836 (bioRxiv, 2025).
# The chains behind the UniProt entries cited, without tags or fusion partners. Where a name states a change or a piece, a line headed by the entry shows the natural chain unless it says otherwise.
# UniProt Q8BX22: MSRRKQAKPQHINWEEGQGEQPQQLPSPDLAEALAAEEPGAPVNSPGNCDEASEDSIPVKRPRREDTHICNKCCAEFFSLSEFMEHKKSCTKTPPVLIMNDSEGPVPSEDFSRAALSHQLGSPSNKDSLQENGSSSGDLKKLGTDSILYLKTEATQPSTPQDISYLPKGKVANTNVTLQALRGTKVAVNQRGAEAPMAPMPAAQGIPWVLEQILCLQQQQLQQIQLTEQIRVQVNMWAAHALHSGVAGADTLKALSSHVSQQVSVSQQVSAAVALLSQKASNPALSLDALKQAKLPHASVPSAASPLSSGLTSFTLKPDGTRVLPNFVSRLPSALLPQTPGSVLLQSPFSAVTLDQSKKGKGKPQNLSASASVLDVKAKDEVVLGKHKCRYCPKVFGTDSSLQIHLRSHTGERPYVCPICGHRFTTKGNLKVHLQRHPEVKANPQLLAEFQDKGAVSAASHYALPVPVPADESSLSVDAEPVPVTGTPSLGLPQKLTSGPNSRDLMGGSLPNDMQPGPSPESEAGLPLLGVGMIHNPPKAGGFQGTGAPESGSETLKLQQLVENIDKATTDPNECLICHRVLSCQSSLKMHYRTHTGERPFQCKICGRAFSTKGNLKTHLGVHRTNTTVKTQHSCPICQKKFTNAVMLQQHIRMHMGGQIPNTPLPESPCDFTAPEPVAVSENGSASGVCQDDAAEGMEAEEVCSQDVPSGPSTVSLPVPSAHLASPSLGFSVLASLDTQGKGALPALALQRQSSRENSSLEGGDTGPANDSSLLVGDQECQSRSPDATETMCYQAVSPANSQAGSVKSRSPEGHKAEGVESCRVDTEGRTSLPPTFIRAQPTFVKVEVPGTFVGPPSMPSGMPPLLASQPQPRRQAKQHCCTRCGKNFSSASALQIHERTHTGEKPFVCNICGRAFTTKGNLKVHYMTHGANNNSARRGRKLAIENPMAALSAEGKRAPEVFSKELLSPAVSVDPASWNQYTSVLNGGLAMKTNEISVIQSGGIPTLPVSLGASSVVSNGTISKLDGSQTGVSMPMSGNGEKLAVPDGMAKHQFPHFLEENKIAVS
# Results are given in words; binding and its absence hold for the method and conditions named. In cells and extracts the contact can be indirect. For part of these data: Binding calls can cover weak binding; strength is not graded here.
# How the values were obtained:
# Assay in all cases: co-IP
# [1] = molecular target: 3xFlag-tagged SALL4 QIDΔ (mouse) (UniProt Q8BX22)
# [2] = molecular target: 3xFlag-monoGFP-tagged SALL4 minimal domain construct (205-237) fused to the SALL4 NLS (mouse)
# [3] = molecular target: 3xFlag-tagged SALL4 C-terminal truncation removing residue 237 (mouse)
binding [1],binding [2],binding [3],Molecule
no binding,,,HA-tagged SALL4 full-length (from UniProt Q8BX22 1-1067)
,binds,no binding,"SALL1 (endogenous) (protein, UniProt Q9ER74 1-1322) MSRRKQAKPQHFQSDPEVASLPRRDGDTEKGQPSRPTKSKDAHVCGRCCAEFFELSDLLLHKKSCTKNQLVLIVNESPASPAKTFPPGPSLNDPDDQMKDAANKADQEDCSDLSEPKGLDREESMEVEVPVATTTTTTTGGSGGSGGSTLSGVTNITTPSCHSGCSSGTSAITTSLPQLGDLTTLGNFSVINSNVIIENLQSTKVAVAQFSQEARCGGASGGKLLISTLMEQLLALQQQQIHQLQLIEQIRHQILLLASQSADLPAAPSIPSQGTLRTSANPLTTLSSHLSQQLAVAAGLAQSLASQSANISGVKQLPHVQLPQSSSGTSIVPPSGGTSPNMSIVTAAVPTPSSEKVASNAGASHVSSPAVSASSSPAFAISSLLSPESNPLLPQPTPANAVFPTPLPNIATTAEDLNSLSALAQQRKSKPPNVTAFEAKSTSDEAFFKHKCRFCAKVFGSDSALQIHLRSHTGERPFKCNICGNRFSTKGNLKVHFQRHKEKYPHIQMNPYPVPEHLDNVPTSTGIPYGMSIPSEKPVTSWLDTKPVLPTLTTSVGLPLPPTLPSLTPFIKTEEPAPIPISHSAASPQGSVKSDSGAPDLATRNPSGVPEEVEGSAVPPFGGKGEESNMASSAVPTAGNSTLNSPVADGGPGGTTFTNPLLPLMSEQFKAKFPFGGLLDSAQASETSKLQQLVENIDKKATDPNECIICHRVLSCQSALKMHYRTHTGERPFKCKICGRAFTTKGNLKTHYSVHRAMPPLRVQHSCPICQKKFTNAVVLQQHIRMHMGGQIPNTPVPDNYPESMESDTGSFDEKNFDDLDNFSDENMEECPEGSIPDTPKSADASQDSLSSSPLPLEMSSIAALENQMKMINAGLAEQLQASLKSVENGSMEGDVLTNDSSSVGGDMESQSAGSPAISESTSSMQALSPSNSTQEFHKSPGMEEKPQRVGPGEFANGLSPTPVNGGALDLTSSHAEKIIKEDSLGILFPFRDRGKFKNTACDICGKTFACQSALDIHYRSHTKERPFICTVCNRGFSTKGNLKQHMLTHQMRDLPSQLFEPSSNLGPNQNSAVIPANSLSSLIKTEVNGFVHVSPQDSKDAPTSHVPQGPLSSSATSPVLLPALPRRTPKQHYCNTCGKTFSSSSALQIHERTHTGEKPFACTICGRAFTTKGNLKVHMGTHMWNSTPARRGRRLSVDGPMTFLGGNPVKFPEMFQKDLAARSGSGDPSSFWNQYTAALSNGLAMKANEISVIQNGGIPPIPGSLGSGSSPISGLTGNVEKLGNSEPSAPLAGLEKMASSENGTNFRFTRFVEDSKEIVTS"
